Substitutions are numbered along the chain they refer to. No constants are given. Whether binding was seen depends on the method and setting. In cells and extracts the contact can be indirect. For some assays here: Binding can be weak; no strength is given. Where a sequence is shown, tags or fusion partners need not be part of it.
Experiments:
[1] = target: T1, FLAG-ACBD4 (UniProt Q8NC06); assay: co-IP; as a3, but lysates treated with λPP for 1 h before the IP (Figs. 1 E and S1 A)
T1 sequence: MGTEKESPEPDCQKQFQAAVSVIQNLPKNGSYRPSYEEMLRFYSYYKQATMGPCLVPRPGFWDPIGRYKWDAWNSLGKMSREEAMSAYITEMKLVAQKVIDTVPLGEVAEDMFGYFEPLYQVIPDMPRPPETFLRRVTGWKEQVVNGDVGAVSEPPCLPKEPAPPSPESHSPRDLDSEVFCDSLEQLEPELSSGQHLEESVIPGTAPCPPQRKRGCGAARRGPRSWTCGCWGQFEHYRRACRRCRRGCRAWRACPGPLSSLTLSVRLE

[2] = target: T2, FLAG-ACBD5 (COS-7) (UniProt Q5T8D3); assay: condition: only lysate treated with λ protein phosphatase (λPP); co-IP; as a3, but lysates treated with λPP for 1 h before the IP (Figs. 1 E and S1 A)
T2 sequence: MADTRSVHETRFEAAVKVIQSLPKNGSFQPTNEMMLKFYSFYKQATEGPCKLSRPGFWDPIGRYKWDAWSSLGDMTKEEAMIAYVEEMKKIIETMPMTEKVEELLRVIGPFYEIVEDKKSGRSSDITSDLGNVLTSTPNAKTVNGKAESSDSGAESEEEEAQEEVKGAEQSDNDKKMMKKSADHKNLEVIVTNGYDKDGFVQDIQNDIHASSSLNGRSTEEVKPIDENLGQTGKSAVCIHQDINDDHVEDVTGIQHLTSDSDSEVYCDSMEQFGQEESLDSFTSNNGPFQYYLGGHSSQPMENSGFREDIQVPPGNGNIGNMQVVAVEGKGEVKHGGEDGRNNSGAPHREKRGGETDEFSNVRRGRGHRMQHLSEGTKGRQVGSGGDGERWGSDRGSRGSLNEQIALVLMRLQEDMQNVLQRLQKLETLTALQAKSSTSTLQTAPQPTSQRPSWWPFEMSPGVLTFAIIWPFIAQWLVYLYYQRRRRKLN

[3] = target: T3, Myc-ACBD5 S259E/S261E/S263E (UniProt Q5T8D3); assay: co-IP; Myc-ACBD5 constructs in COS-7 lysates treated with or without λPP for 1 h, then Myc-TRAP magnetic agarose beads 1 h at 4°C; endogenous VAPB by immunoblot (Fig. 1 C, methods in p-0042; Fig. 2 D and E)
T3 sequence: T2 sequence with S259E, S261E, S263E

[4] = target: T4, Myc-ACBD5 S261E (UniProt Q5T8D3); assay: as above
T4 sequence: T2 sequence with S261E

[5] = target: T5, Myc-ACBD5 S263A (UniProt Q5T8D3); assay: co-IP; Myc-ACBD5 constructs or Myc-VAPB in COS-7 lysates (10 mM Tris-HCl pH 7.4, 150 mM NaCl, 0.5 mM EDTA, 0.5% NP-40, phosphatase inhibitor), Myc-TRAP magnetic agarose beads 1 h at 4°C; immunoblot; in some panels GSK3β WT or K85A coexpressed (Figs. 2 C, 3 A, 5 A, 7 A, S1 C, S4 B)
T5 sequence: T2 sequence with S263A

In the case of endogenous VAPB (COS-7 cells), the binding [1] is reported as “binds”, the binding [2] is reported as “no binding” and the binding [3] is reported as “binds”. For the same substance, the binding [4] was “binds” and the binding [5] was “binds”.

From paper PMC8759595
